According to patent US20210277097A1:
Results are given in words; binding and its absence hold for the method and conditions named. Some results given as binding are weak or reduced against the parent protein; the word gives no strength.

Columns and labels:
[1] = target: recombinant rat RGM A (rat); assay: direct ELISA on rRatRGMA
[2] = target: recombinant rat RGM A (rat); assay: ELISA on rat RGM A (data not shown)

B1: rat anti-human RGM A monoclonal antibody 5F9 (antibody, V domains shown)
VH: EVQLVESGGGLVQPGSSLKLSCVASGFTFSNYGMNWIRQAPKKGLEWIGMIYYDSSEKHYADSVKGRFTISRDNSKNTLYLEMNSLRSEDTAIYYCAKGTTPDYWGQGVMVTVSS
VL: DVVLTQTPVSLSVTLGDQASMSCRSSQSLEYSDGYTFLEWFLQKPGQSPQLLIYEVSNRFSGVPDRFIGSGSGTDFTLKISRVEPEDLGVYYCFQATHDPLTFGSGTKLEIKR
binding [1]: binds
binding [2]: binds
